Measured values published in US20100034903A1, “SHINYLEAF YELLOWHORN EXTRACT, METHODS FOR EXTRACTION AND USES THEREOF” (priority 2006, published 2010).

Tested on: anisodine-induced memory impairment mice
Assay: Anisodine-induced memory impairment of mice
Assay type: in vivo
Conditions: 0.5 mg/kg, gavage

SMILES: COc1cc2c(cc1OC)C(=O)C(CC1CCN(Cc3ccccc3)CC1)C2 (centres unmarked) [Aricept, Donepezil]
- Electricity-avoiding latency: 255.9 ± 126.1 s
- Number of error: 0.20 ± 0.18 times
